Source: PubChem BioAssay AID1347075 (National Center for Advancing Translational Sciences (NCATS), 2019)
Where “and” joins values, the source holds several entries; their conditions need not be identical. Equal values may be shown once. Out of some 400,000 compounds screened, about 5,500 (1.4%) were called active. This list was built around the results that the source calls inconclusive (neither active nor inactive); the mix of calls is not that of the screen. The call rests on the fitted dose curve; in most records, active means well fitted cell-killing curve with a large enough effect; inconclusive means small, poorly fitted or top-dose-only effect, or effect the other way; inactive means flat fitted curve, though single readings scatter. Potencies beside an inconclusive call are fits to weak or partial responses and may not hold up.

Experiment: qHTS assay for MDR1-selective chemotherapeutics: Primary screen using the parental adenocarcinoma cell KB-3-1; further: nearly all actives have a fitted effect of over 60% in size
Conditions: KB-3-1 viability, CellTiter-Glo ATP luminescence, 72 h; activity change, negative = cytotoxic: at 46.1 µM (top of the series)
Summary of the method: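 Viability of parental KB-3-1 cells, measured by CellTiter-Glo luminescence, followed a 72 h incubation at 37 °C with pinned compounds in phenol-red-free DMEM containing 10% FBS.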
On the % scale 0 is the no-effect control and ±100 the full control effect; potency means the concentration at half of the fitted maximal effect.

With `Nc1ccc2ncccc2c1` as the molecule, how does the Potency read?
Its Potency is “inactive”.

With `O=S1(=O)C=C(SCc2ccc(F)cc2)Nc2ccccc21` as the molecule, how does the Potency read?
Its Potency is “inactive”.

For `Cc1cccc(N=Cc2[nH]c3ccc(Br)c(Cl)c3c2O)c1`, which Potency is on record?
Its Potency is inconclusive: 29.1 µM [cytotoxic, single point].

For `O=C(/C=C/c1ccc(S(=O)(=O)N2CCOCC2)cc1)Nc1ccc(F)c(F)c1F`, which Potency is on record?
The Potency was inconclusive: 20.6 µM [cytotoxic, single point].

With `CC1CCc2c(sc3nc(C(C)(C)C)nc(N4CCN(C(=O)CCl)CC4)c23)C1` (centres undefined) as the molecule, how does the Potency read?
Its Potency is inconclusive: 29.1 µM [cytotoxic, single point].

For `O=C(c1ccc2c(c1)N(Cc1ccc(Cl)cc1)C(=O)c1ccccc1S2(=O)=O)N1CCCCC1`, which Potency is on record?
Its Potency is inconclusive: 16.4 µM [cytotoxic, partial curve, poor fit].

Which Potency does the source give for `Cc1ccc2[nH]c(CCN(C)C)c(CN3CCOCC3)c2c1` here?
Its Potency is “inactive”.

With `CC1=C(C(=O)N(C(C)C)C(C)C)CC(CC(=O)NCCN2CCOCC2)C(=O)N1Cc1ccccc1` (centres undefined) as the molecule, how does the Potency read?
Its Potency is “inactive”.

For `COc1ccc(NC(=O)CSc2nc3c(oc4ccccc43)c(=O)n2-c2ccc(C)c(C)c2)cc1`, which Potency is on record?
The Potency was “inactive”.

For `CCOC(=O)c1c(NC(C)=O)c2c3c(sc2n1Cc1nc(-c2ccccc2C)oc1C)CCCC3`, which Potency is on record?
The Potency was inconclusive: 23.1 µM [cytotoxic, single point].

Which Potency does the source give for `CCc1nc2c(OCC(=O)C(C)(C)C)cccn2c1N(C)C(=O)C(C)C` here?
The Potency was “inactive”.

For `Cn1c(SCc2nc(-c3ccc(Cl)cc3)no2)nnc1-c1cccs1`, which Potency is on record?
Its Potency is inconclusive: 32.6 µM [cytotoxic, single point].

Which Potency does the source give for `CSc1nnc(NC(=O)c2nc(S(=O)(=O)Cc3ccccc3)ncc2Cl)s1` here?
The Potency was active: 18.4 µM.

With `CCn1c(SCC(=O)N2CCCCC2)nc2c1c(=O)n(C)c(=O)n2C` as the molecule, how does the Potency read?
Its Potency is “inactive”.

For `COc1ccc(C(C#N)=C2C=C(Cl)C(=NO)C=C2Cl)cc1`, which Potency is on record?
The Potency was inconclusive: 29.1 µM [cytotoxic, single point].

For `Cc1cccc(-c2ccc3[nH]c4c(c3c2)CCN2C[C@H]3[C@H](C)ON(C)[C@H]3C[C@@H]42)c1`, which Potency is on record?
The Potency was inconclusive: 29.1 µM [cytotoxic, partial curve, poor fit].

For `COc1cccc(CN(C)C[C@H]2OCc3cnnn3CCCC(=O)N([C@@H](C)CO)C[C@@H]2C)c1`, which Potency is on record?
Its Potency is “inactive”.

For `C[C@H](CO)N1C[C@H](C)[C@H](CN(C)C(=O)c2cc(-c3ccccc3)on2)OCc2cnnn2CCCC1=O`, which Potency is on record?
Its Potency is “inactive”.

With `COc1ccc(/C=C2\CCCC3C2=NN(C(=O)c2ccco2)C3c2ccc(OC)c(OC)c2)cc1OC` (centres undefined) as the molecule, how does the Potency read?
Its Potency is inconclusive: 25.9 µM [cytotoxic, single point].

Which Potency does the source give for `COc1ccc(-c2cc(C(F)(F)F)nc(SCC(=O)NCc3cnn(C)c3C)n2)cc1OC` here?
Its Potency is inconclusive: 32.6 µM [rising, single point].

With `COc1cccc(C(=O)Nc2ccc3c(cc2=O)[C@@H](NC(C)=O)CCc2cc(OC)c(OC)c(OC)c2-3)c1` as the molecule, how does the Potency read?
Its Potency is active: 2.91 µM.

Which Potency does the source give for `CC1C=CCC2C(=O)N(c3cccc(C(=O)NCc4ccccc4)c3)C(=O)C12` (centres undefined) here?
Its Potency is “inactive”.

Which Potency does the source give for `COc1ccc(NC(=O)CCC(=O)c2cccs2)cc1S(=O)(=O)Nc1ccc(Cl)cc1` here?
Its Potency is inconclusive: 20.6 µM [cytotoxic, partial curve, poor fit].

For `COc1cccc(NC(=O)CN(C)C(=O)CCC(=O)c2cc(C)sc2C)c1`, which Potency is on record?
The Potency was “inactive”.

For `C#CCn1c(S(=O)(=O)Cc2ccc(F)cc2)nc(-c2ccccc2)c1-c1ccccc1`, which Potency is on record?
Its Potency is active: 16.4 µM.

For `CCOc1cc(NS(C)(=O)=O)c(OCC)cc1NC(=O)c1cccs1`, which Potency is on record?
The Potency was inconclusive: 8.2 µM [rising, partial curve].

Which Potency does the source give for `CC(C)C[C@@H](CN1CCC[C@@H]1CN1C(=O)C(=O)NC[C@@H]1Cc1ccccc1)N1C[C@H](Cc2ccc(O)cc2)N(CC2CCCCCC2)C(=O)C1=O` here?
The Potency was inconclusive: 29.1 µM [cytotoxic, single point].

With `O=[N+]([O-])c1cc2cccnc2c2ncccc12` as the molecule, how does the Potency read?
Its Potency is active: 0.116 µM.

With `Cc1cccn2c(=O)c3cc(S(=O)(=O)c4ccccc4)c(=N)n(Cc4cccnc4)c3nc12` as the molecule, how does the Potency read?
Its Potency is inconclusive: 29.1 µM [cytotoxic, single point].

For `COc1ccc2cc(C3(C)NC(=O)N(CC(=O)N4CCCCC4)C3=O)ccc2c1` (centres undefined), which Potency is on record?
The Potency was inconclusive: 3.26 µM [rising, partial curve, poor fit].

For `Cc1ccc(-n2c(C)nnc2SCC(=O)NNC(=O)c2ccco2)cc1`, which Potency is on record?
Its Potency is “inactive”.

With `COc1ccc(C(NC(=O)C2CCN(CCCOc3ccccc3)CC2)c2cccs2)cc1` (centres undefined) as the molecule, how does the Potency read?
Its Potency is inconclusive: 29.1 µM [cytotoxic, single point].

With `CC(C)c1cccc(-c2ccc3c(c2)S(=O)(=O)c2cccc(C(=O)NCc4ccco4)c2C3=O)c1` as the molecule, how does the Potency read?
The Potency was inconclusive: 29.1 µM [cytotoxic, single point].

Which Potency does the source give for `Cc1nc2ccc(NC(=S)NCCCO)cc2nc1C` here?
Its Potency is inconclusive: 4.11 µM [cytotoxic, full curve].

With `Cc1cc(NC(=O)CN(C)C)c([N+](=O)[O-])cc1C` as the molecule, how does the Potency read?
The Potency was “inactive”.

Which Potency does the source give for `Cc1ccc(C)c(NC(=O)c2cnn3ccccc23)c1` here?
Its Potency is inconclusive: 20.6 µM [cytotoxic, single point].

With `O=C(O)CN1C(=O)C2C3CCC(C3)C2C1=O` (centres undefined) as the molecule, how does the Potency read?
The Potency was inconclusive: 13 µM [cytotoxic, partial curve].

Which Potency does the source give for `CC1=C(c2ccc(C)cc2)S(=O)(=O)N(Cc2ccc(C(=O)Nc3ccc(F)cc3C)cc2)C1=O` here?
Its Potency is inconclusive: 29.1 µM [cytotoxic, partial curve, poor fit].

For `COc1ccccc1NC(=O)CN1C(=O)C2(SCC(=O)N2c2ccc(C)c(C)c2)c2ccccc21` (centres undefined), which Potency is on record?
Its Potency is active: 18.4 µM.

Which Potency does the source give for `O=C1Nc2ccc3sc4ccccc4c3c2C1=O` here?
Its Potency is “inactive”.

For `COc1cc(C2c3cc4c(cc3C(OC3OC5COC(c6cccs6)OC5C(O)C3O)C3COC(=O)C23)OCO4)cc(OC)c1O` (centres undefined), which Potency is on record?
Its Potency is active: 4.11 µM.

Which Potency does the source give for `Cc1ccc(-c2nc3ccccc3o2)cc1NC(=S)NC(=O)c1cc2ccccc2o1` here?
The Potency was active: 8.2 µM.

For `CCOc1ccccc1N1CC(C(=O)Nc2cccc(S(=O)(=O)N3CCCCC3)c2)CC1=O` (centres undefined), which Potency is on record?
Its Potency is “inactive”.

For `c1ccc(Cc2cc[n+](Cc3ccccc3)cc2)cc1`, which Potency is on record?
The Potency was active: 18.4 µM.

Which activity change, negative = cytotoxic does the source give for `CC(C)[C@H](NC(=O)OCc1ccccc1)C(=O)OCC(=O)N1CCN(c2ccccc2)CC1` here?
Its activity change, negative = cytotoxic is inconclusive: 16.7%.

Which Potency does the source give for `CCCCCCCCN1C(=O)[C@H](CC(=O)NCCc2ccccc2OC)C[C@@]2(C(=O)OC)CC(C)(C)CC=C12` here?
Its Potency is inconclusive: 20.6 µM [cytotoxic, single point].

Which Potency does the source give for `COc1ccc(-c2cc(C(=O)NCc3ccc(F)cc3)c3c(-c4ccc(F)cc4)[nH]nc3n2)cc1OC` here?
The Potency was inconclusive: 29.1 µM [cytotoxic, single point].

With `CC(C)N=C(NS(=O)(=O)c1cccs1)c1ccccc1` as the molecule, how does the Potency read?
Its Potency is “inactive”.

With `COc1ccccc1C1CC(c2ccc(Br)cc2)=NN1C(=O)c1cccnc1` (centres undefined) as the molecule, how does the Potency read?
The Potency was inconclusive: 20.6 µM [cytotoxic, single point].

For `O=C(C1=C[C@H](c2ccc3c(c2)OCO3)C[C@H](OCCCCO)O1)N1CCN(Cc2ccccc2)CC1`, which Potency is on record?
The Potency was “inactive”.

With `COc1ccccc1C(=O)Nn1c(C)nc2ccccc2c1=O` as the molecule, how does the Potency read?
The Potency was “inactive”.

For `O=C(O)c1ccc(SCc2ccccc2)nc1`, which Potency is on record?
Its Potency is “inactive”.

For `CN(C(=O)c1ccc(NC(=O)Cc2ccc(NC(=O)C3CCCN(C(=O)CCc4ccccc4)C3)cc2)cc1)C1CC1` (centres undefined), which Potency is on record?
The Potency was inconclusive: 20.6 µM [cytotoxic, single point].

For `N#Cc1cccc(NS(=O)(=O)c2ccc3c(c2)CCC(=O)N3)c1`, which Potency is on record?
Its Potency is inconclusive: 29.1 µM [rising, single point].

For `C/C(=N\N=C(N)N)c1ccc(Cl)cc1`, which Potency is on record?
The Potency was inconclusive: 29.1 µM [cytotoxic, single point].

With `COc1ccc(N2C(=O)c3ccccc3NC2c2ccc(OC)c(COc3ccc(NC(C)=O)cc3)c2)cc1` (centres undefined) as the molecule, how does the Potency read?
The Potency was “inactive”.

For `N#C/C(=C(/O)c1cc2ccccc2o1)c1nc2ccccc2s1`, which Potency is on record?
The Potency was active: 20.6 µM.

Which Potency does the source give for `COc1cccc(CN2CCc3nc(N4CCN(c5ncccn5)CC4)ncc3C2)c1` here?
The Potency was inconclusive: 20.6 µM [cytotoxic, single point].

With `Cn1c(-c2ccccc2)c(/C=N/NC(=O)c2ccc(O)cc2)c2ccccc21` as the molecule, how does the Potency read?
The Potency was inconclusive: 29.1 µM [cytotoxic, single point].

For `CC(=O)Nc1sc2c(c1C(c1ccc(Cl)cc1)N1CCOCC1)CCCC2` (centres undefined), which Potency is on record?
Its Potency is inconclusive: 29.1 µM [cytotoxic, single point].

For `CCCCc1nc(N2CCN(C(=O)c3ccco3)CC2)c(C#N)c2c1CCCC2`, which Potency is on record?
Its Potency is inconclusive: 29.1 µM [cytotoxic, single point].

Which Potency does the source give for `COc1cc(C(=O)Nc2cc3c4c(c2)CC(=O)N4CCC3)cc(OC)c1OC` here?
Its Potency is inconclusive: 9.2 µM [rising, partial curve, poor fit].

Which Potency does the source give for `COc1ccc(C(=O)NNC(=S)NC(=O)C(C)(C)C)cc1` here?
Its Potency is inconclusive: 18.4 µM [cytotoxic, single point].

Which Potency does the source give for `CSC1=C(C#N)C(c2ccc(Cl)cc2)C2=C(CC(C)(C)CC2=O)N1` (centres undefined) here?
The Potency was inconclusive: 16.4 µM [cytotoxic, partial curve, poor fit].

For `Cc1ccccc1CN1CCCC(C(=O)Nc2ccc(-c3ccn[nH]3)cc2)C1` (centres undefined), which Potency is on record?
Its Potency is inconclusive: 16.4 µM [cytotoxic, single point].

Which Potency does the source give for `Nc1nnc(SCC(=O)Nc2ccc(F)c(Cl)c2)n1-c1ccccc1` here?
The Potency was inconclusive: 18.4 µM [rising, single point].

With `S=c1nc[nH]c2nc[nH]c12` as the molecule, how does the Potency read?
Its Potency is active: 4.11 µM and active: 820 nM.

With `COc1cccc(OC)c1NC(=O)c1ccc(-c2cc(Cl)ccc2Cl)o1` as the molecule, how does the Potency read?
The Potency was “inactive”.

With `O=C1CC(c2ccccc2)=C(c2ccccc2)C1c1ccccc1` (centres undefined) as the molecule, how does the Potency read?
Its Potency is inconclusive: 18.4 µM [cytotoxic, single point].
